Earlier results in US20220202699A1 (priority 2020, published 2022).
Where two headings read alike, the source gives them in different places. At least one structure is not confirmed: it was looked up by name or label, or the drawing left a doubt.

Assays:
[1] = system: influenza A virus
[2] = system: influenza A virus; remark: listed apart in the source
[3] = system: inflammatory cell infiltrates (neutrophils and lymphocytes)
[4] = mice
[5] = system: Toll-like receptors (TLR); details: suppress innate immunity
[6] = ferrets

Structure (SMILES): CCCCCCCC/C=C\CCCCCCCC(=O)O[C@H](COC(=O)CCCCCCCCCCCCCCC)COP(=O)(O)OCC(O)CO (some centres unmarked) [POPG, 1-palmitoyl-2-oleoyl-sn-glycero-3-phosphoglycerol]
- binding affinity for the influenza A virus [1]: high binding affinity
- binding of the influenza A virus to the surrogate host cells [2]: prevent the binding
- membrane convergence of influenza A and host cell ([2]; influenza A, model MDCK cells): inhibited
- virus-induced proinflammatory cytokines ([3]; in vivo): reduced
- lowering of total inflammatory cell infiltrates (neutrophils and lymphocytes) ([3]; pulmonary inflammation): > 90%
- viricidal effect [4]: viricidal
- functioning as deactivators of Toll-like receptors (TLR) [5]: deactivators of Toll-like receptors
- viricidal effect [6]: viricidal
